Residue numbers refer to the chain shown, from its start. These are yes or no findings as the source states them, for the method shown. Some binding calls cover weakened binding; strength is not graded here.

First the molecules themselves.
B1: PR-1254982 (antibody, mouse IgG1, V domains shown)
VH: QVQLKESGPGLVAPSQSLSITCTVSGFSLTGYNINWVRQPPGKGLEWLGMIWGYGDTDYNSALKSRLSISKDNSKSQVFLKMNSLQTDDTARYYCARDHYGGNDWYFDVWGTGTTVTVSS
VL: DIQMTQTTSSLSASLGDRVTITCRASQDITNYLNWYQQKPDGTVKLLIYYTSRLHSGVPSRFSGSGSGTDYSLTISNLDQEDIATYFCQQGKTLPRTFGGGTKLEIKR
B2: PR-1254972 (antibody, mouse IgG2b, V domains shown)
VH: EVHLVESGGGLVKPGGFLILSCAASGFTFSDYYMFWIRQTPGKRLEWVATISDGGSYTYYTDNVKGRFTISRDNVKNNLYLQMSHLKSADTAMYYCARDWSDSEGFAYWGQGTLVTVSA
VL: DVLMTQTPLSLPVSLGDQASISCRSSQSIVQSNGNTYLEWYLQKPGQSPKLLIYKVSNRFSGVPDRFSGSGSGTDFTLKISRVEAEDLGVYYCFQGSHVPFTFGSGTKLEIKR
B3: PR-1254981 (antibody, mouse IgG1, V domains shown)
VH: EVQLVESGGGAVKPGGSLTLSCAASGFTFSNHYMYWVRQTPEKRLEWVASISDGGAYTFYPDTVKGRFTISRDNVNNNLYLQMRHLKSEDTAMYYCTREESANNGFAFWGQGTLVTVSA
VL: B2 VL with V30L, Q31H, K50N, K55R, S97A

The target in the experiment is recombinant canine β NGF (canine). Briefly: SPR (Biacore), mAb captured on anti-mouse IgG Fc.
Take B1: the binding result was “binds”.

Regarding B2, the binding entry is recorded as “binds”.

Turning to B3, the binding entry is reported as “binds”.
